# Assay results taken from the supplement of paper PMC6411743.
# ± gives the standard deviation of the averaged measurements. The list shows a part of the results.
# Target: T1, CSTF2T (UniProt Q9H0L4)
# T1 sequence (whole entry): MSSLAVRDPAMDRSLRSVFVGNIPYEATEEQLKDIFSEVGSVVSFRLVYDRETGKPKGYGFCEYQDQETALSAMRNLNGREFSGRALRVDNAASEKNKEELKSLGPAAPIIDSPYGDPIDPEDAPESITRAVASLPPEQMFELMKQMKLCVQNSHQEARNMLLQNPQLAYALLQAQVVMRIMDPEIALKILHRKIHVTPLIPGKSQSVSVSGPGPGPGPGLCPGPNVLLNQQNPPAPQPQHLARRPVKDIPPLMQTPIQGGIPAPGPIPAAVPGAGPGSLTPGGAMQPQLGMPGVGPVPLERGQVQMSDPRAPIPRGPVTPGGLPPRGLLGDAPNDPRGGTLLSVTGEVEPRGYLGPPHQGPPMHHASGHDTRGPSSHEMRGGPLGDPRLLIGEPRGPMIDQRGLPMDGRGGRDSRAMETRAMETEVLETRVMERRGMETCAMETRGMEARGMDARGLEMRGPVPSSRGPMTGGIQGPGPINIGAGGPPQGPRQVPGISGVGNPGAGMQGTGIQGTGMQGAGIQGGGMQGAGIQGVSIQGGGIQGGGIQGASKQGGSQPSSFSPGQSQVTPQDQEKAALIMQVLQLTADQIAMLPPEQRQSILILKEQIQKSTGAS
# Assay: NP40-soluble protein abundance relative to vehicle (solubility fold change) (ratio); higher = more soluble protein in presence of GTP
# Protocol: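 Solubility proteome profiling in Jurkat crude lysate. Lysate was treated with Mg-GTP (0.1-10 mM) for 10 min at room temperature and 3 min at 37 °C, then solubilised with 0.8% NP40 and benzonase, followed by ultracentrifugation. Proteins were quantified by TMT10 LC-MS/MS; the value is the NP40-soluble abundance relative to the NP40-processed vehicle, from 3 independent experiments.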
structure (smiles),measurement,setting,value
Nc1nc2c(ncn2[C@@H]2O[C@H](COP(=O)(O)OP(=O)(O)OP(=O)(O)O)[C@@H](O)[C@H]2O)c(=O)[nH]1 [guanosine triphosphate],NP40-soluble protein abundance,concentration: 0.1mM,0.972 ± 0.025
same,NP40-soluble protein abundance,concentration: 0.5mM,0.925 ± 0.02
same,NP40-soluble protein abundance,concentration: 1mM,1.04 ± 0.051
same,NP40-soluble protein abundance,concentration: 2mM,1.04 ± 0.02
same,NP40-soluble protein abundance,concentration: 4mM,1.03 ± 0.048
same,NP40-soluble protein abundance,concentration: 6mM,1.04 ± 0.035
same,NP40-soluble protein abundance,concentration: 8mM,1.08 ± 0.05
same,NP40-soluble protein abundance,concentration: 10mM,1.07 ± 0.07
